From publication PMC4157579, “Lysine Acetylation Controls Local Protein Conformation by Influencing Proline Isomerization” (Molecular Cell, 2014)
Results are given in words; binding and its absence hold for the method and conditions named.

By UniProt entry, the sequences of proteins in these tests, tags left out. Residues count along the entry.
UniProt P35177, residues 363-619: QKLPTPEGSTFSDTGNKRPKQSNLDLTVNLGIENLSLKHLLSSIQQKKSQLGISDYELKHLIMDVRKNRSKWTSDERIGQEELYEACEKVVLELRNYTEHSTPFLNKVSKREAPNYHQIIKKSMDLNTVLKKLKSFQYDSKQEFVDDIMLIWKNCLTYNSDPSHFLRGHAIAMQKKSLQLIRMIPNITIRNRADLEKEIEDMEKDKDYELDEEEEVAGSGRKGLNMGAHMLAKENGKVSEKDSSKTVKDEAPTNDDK

Biological target: Spt7 bromodomain (residues 363–619) (UniProt P35177)
Assay: SPR; peptides binding to immobilized Spt7 bromodomain; Biacore T100 and T200, 25°C; 1:1 binding model; relative binding; both purified

- binding: no binding
Substance: K14R-K18ac H3 peptide (11–26) (from UniProt P61830 12-27)
